# Experimental data reported in the supplement of paper PMC8728848.
# The list shows a part of the results.
# B1: GS7807Q-bfa-507-19-507 (Bacteroides fragilis) (protein)
# chain: ASCNKFDDLNTNPDAATKVTAPMLATKLILNITQQGSAKNFVYHSMLSKQIAWSENASDEQYNLFGRTDFDGYTILTNCQKMVDAANEGDKDSYAALAKFMKAYKLFYKSLEVGDIPYSDALKGEEGVQKPKYDTQKEVMRQVLEDLEEAYTLFSSGSDFDGDPIFGGDTENWKKTVVAFELKVLTHLCKKDTDADLKVKERFARLVSSGSLMTSNADNFQLVYSNKAGQLYPFYYTQNKHSDYLMMSSVIIDNLKKFNDYRMFYYASPAKAQTDKGIKDSEWDAYLSIDPSDSYSNISVLYGKGEFCLANLRYTRVPEGEPLMRLSYAEQNFILAEGAVRGWISEDASTYYKKGIEASMNFIADNTPDKEEYTHGRTITQEYIQEYLAQPVIQLSGDKEKDLEMILLQRYLASFLQHPYDAYYDYRRTGYPVLPINPSTNLNTEKNKIPTRWMYPEAEFSYNPDNANEAVQRQYNGSDDVNKLMWILQ
# Experiments:
# Test in all cases: glycan array binding signal (z-score within array); higher = stronger binding
# Details in all cases: glycan notation: IUPAC condensed, linker removed
# [1] = molecular target: Neu5Ac(a2-6)Gal(b1-4)GlcNAc(b1-2)Man(a1-3)[Neu5Ac(a2-3)Gal(b1-4)GlcNAc(b1-2)Man(a1-6)]Man(b1-4)GlcNAc(b1-4)GlcNAc
# Summary of the method: (§1)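 The Consortium for Functional Glycomics database supplied 3228 glycan arrays, of which those lacking an available protein sequence were dropped. The binding signal, a within-array Z-score, was averaged across arrays of the same protein sequence and across linkers. Negative scores can be read as non-binding.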
# [2] = molecular target: Neu5Ac(a2-6)Gal(b1-4)GlcNAc(b1-2)Man(a1-3)[Neu5Ac(a2-6)Gal(b1-4)GlcNAc(b1-2)Man(a1-6)]Man(b1-4)GlcNAc(b1-4)GlcNAc
# Summary of the method: as §1
# [3] = molecular target: Neu5Ac(a2-6)Gal(b1-4)GlcNAc(b1-2)Man(a1-3)[Neu5Ac(a2-6)Gal(b1-4)GlcNAc(b1-2)Man(a1-6)]Man(b1-4)GlcNAc(b1-4)[Fuc(a1-6)]GlcNAc
# Summary of the method: as §1
# [4] = molecular target: Neu5Ac(a2-6)Gal(b1-4)GlcNAc(b1-2)Man(a1-6)Man(b1-4)GlcNAc(b1-4)GlcNAc
# Summary of the method: as §1
# [5] = molecular target: Neu5Ac(a2-6)Gal(b1-4)GlcNAc(b1-2)Man(a1-6)[Gal(b1-4)GlcNAc(b1-2)Man(a1-3)]Man(b1-4)GlcNAc(b1-4)GlcNAc
# Summary of the method: as §1
# [6] = molecular target: Neu5Ac(a2-6)Gal(b1-4)GlcNAc(b1-2)Man(a1-6)[GlcNAc(b1-2)Man(a1-3)]Man(b1-4)GlcNAc(b1-4)GlcNAc
# Summary of the method: as §1
# [7] = molecular target: Neu5Ac(a2-6)Gal(b1-4)GlcNAc(b1-2)Man(a1-6)[Man(a1-3)]Man(b1-4)GlcNAc(b1-4)GlcNAc
# Summary of the method: as §1
# [8] = molecular target: Neu5Ac(a2-6)Gal(b1-4)GlcNAc(b1-2)[Neu5Ac(a2-6)Gal(b1-4)GlcNAc(b1-4)]Man(a1-3)[GlcNAc(b1-4)][Neu5Ac(a2-6)Gal(b1-4)GlcNAc(b1-2)[Neu5Ac(a2-6)Gal(b1-4)GlcNAc(b1-6)]Man(a1-6)]Man(b1-4)GlcNAc(b1-4)GlcNAc
# Summary of the method: as §1
# [9] = molecular target: Neu5Ac(a2-6)Gal(b1-4)GlcNAc(b1-2)[Neu5Ac(a2-6)Gal(b1-4)GlcNAc(b1-4)]Man(a1-3)[GlcNAc(b1-4)][Neu5Ac(a2-6)Gal(b1-4)GlcNAc(b1-4)Man(a1-6)]Man(b1-4)GlcNAc(b1-4)GlcNAc
# Summary of the method: as §1
# [10] = molecular target: Neu5Ac(a2-6)Gal(b1-4)GlcNAc(b1-2)[Neu5Ac(a2-6)Gal(b1-4)GlcNAc(b1-6)]Man(a1-6)[Neu5Ac(a2-6)Gal(b1-4)GlcNAc(b1-2)Man(a1-3)][GlcNAc(b1-4)]Man(b1-4)GlcNAc(b1-4)GlcNAc
# Summary of the method: as §1
# [11] = molecular target: Neu5Ac(a2-6)Gal(b1-4)GlcNAc(b1-3)Gal(b1-3)GlcNAc
# Summary of the method: as §1
# [12] = molecular target: Neu5Ac(a2-6)Gal(b1-4)GlcNAc(b1-3)Gal(b1-4)GlcNAc
# Summary of the method: as §1
# [13] = molecular target: Neu5Ac(a2-6)Gal(b1-4)GlcNAc(b1-3)Gal(b1-4)GlcNAc(b1-2)Man(a1-3)[Neu5Ac(a2-6)Gal(b1-4)GlcNAc(b1-3)Gal(b1-4)GlcNAc(b1-2)Man(a1-6)]GalNAc
# Summary of the method: as §1
# [14] = molecular target: Neu5Ac(a2-6)Gal(b1-4)GlcNAc(b1-3)Gal(b1-4)GlcNAc(b1-3)Gal(b1-4)GlcNAc
# Summary of the method: as §1
# [15] = molecular target: Neu5Ac(a2-6)Gal(b1-4)GlcNAc(b1-3)Gal(b1-4)GlcNAc(b1-3)Gal(b1-4)GlcNAc(b1-2)Man(a1-3)[Neu5Ac(a2-6)Gal(b1-4)GlcNAc(b1-3)Gal(b1-4)GlcNAc(b1-3)Gal(b1-4)GlcNAc(b1-2)Man(a1-6)]GalNAc
# Summary of the method: as §1
# [16] = molecular target: Neu5Ac(a2-6)Gal(b1-4)GlcNAc(b1-3)Gal(b1-4)GlcNAc(b1-3)GalNAc
# Summary of the method: as §1
# [17] = molecular target: Neu5Ac(a2-6)Gal(b1-4)GlcNAc(b1-3)Gal(b1-4)GlcNAc(b1-3)[Neu5Ac(a2-6)Gal(b1-4)GlcNAc(b1-3)Gal(b1-4)GlcNAc(b1-6)]GalNAc
# Summary of the method: as §1
# [18] = molecular target: Neu5Ac(a2-6)Gal(b1-4)GlcNAc(b1-3)Gal(b1-4)GlcNAc(b1-6)[Gal(b1-3)]GalNAc
# Summary of the method: as §1
# [19] = molecular target: Neu5Ac(a2-6)Gal(b1-4)GlcNAc(b1-3)Gal(b1-4)[Fuc(a1-3)]GlcNAc(b1-3)Gal(b1-4)[Fuc(a1-3)]GlcNAc
# Summary of the method: as §1
# [20] = molecular target: Neu5Ac(a2-6)Gal(b1-4)GlcNAc(b1-3)GalNAc
# Summary of the method: as §1
# [21] = molecular target: Neu5Ac(a2-6)Gal(b1-4)GlcNAc(b1-3)[Neu5Ac(a2-6)Gal(b1-4)GlcNAc(b1-6)]GalNAc
# Summary of the method: as §1
# [22] = molecular target: Neu5Ac(a2-6)Gal(b1-4)GlcNAc(b1-6)GalNAc
# Summary of the method: as §1
# [23] = molecular target: Neu5Ac(a2-6)Gal(b1-4)GlcNAc(b1-6)[Gal(b1-3)GlcNAc(b1-3)]Gal(b1-4)Glc
# Summary of the method: as §1
# [24] = molecular target: Neu5Ac(a2-6)Gal(b1-4)GlcNAc(b1-6)[Gal(b1-3)]GalNAc
# Summary of the method: as §1
# [25] = molecular target: Neu5Ac(a2-6)Gal(b1-4)GlcNAc6S
# Summary of the method: as §1
# [26] = molecular target: Neu5Ac(a2-6)GalNAc
# Summary of the method: as §1
# [27] = molecular target: Neu5Ac(a2-6)GalNAc(b1-4)GlcNAc
# Summary of the method: as §1
# [28] = molecular target: Neu5Ac(a2-6)GalNAc(b1-4)GlcNAc6S
# Summary of the method: as §1
# [29] = molecular target: Neu5Ac(a2-6)GlcNAc(b1-4)GlcNAc
# Summary of the method: as §1
# [30] = molecular target: Neu5Ac(a2-6)GlcNAc(b1-4)GlcNAc(b1-4)GlcNAc
# Summary of the method: as §1
binder,measurement,setting,value
B1,glycan array binding signal (z-score),[1],-0.916
same,glycan array binding signal (z-score),[2],-0.28
same,glycan array binding signal (z-score),[3],-0.449
same,glycan array binding signal (z-score),[4],-0.353
same,glycan array binding signal (z-score),[5],-0.692
same,glycan array binding signal (z-score),[6],-0.158
same,glycan array binding signal (z-score),[7],-0.746
same,glycan array binding signal (z-score),[8],0.811
same,glycan array binding signal (z-score),[9],0.481
same,glycan array binding signal (z-score),[10],0.863
same,glycan array binding signal (z-score),[11],-1.24
same,glycan array binding signal (z-score),[12],-0.739
same,glycan array binding signal (z-score),[13],0.98
same,glycan array binding signal (z-score),[14],0.206
same,glycan array binding signal (z-score),[15],3.17
same,glycan array binding signal (z-score),[16],-0.779
same,glycan array binding signal (z-score),[17],0.237
same,glycan array binding signal (z-score),[18],0.189
same,glycan array binding signal (z-score),[19],-0.044
same,glycan array binding signal (z-score),[20],0.841
same,glycan array binding signal (z-score),[21],-0.829
same,glycan array binding signal (z-score),[22],0.777
same,glycan array binding signal (z-score),[23],1.67
same,glycan array binding signal (z-score),[24],-0.155
same,glycan array binding signal (z-score),[25],-0.159
same,glycan array binding signal (z-score),[26],-1.09
same,glycan array binding signal (z-score),[27],-0.986
same,glycan array binding signal (z-score),[28],0.074
same,glycan array binding signal (z-score),[29],0.085
same,glycan array binding signal (z-score),[30],0.554

# Reprinted at random: two records from the list
binder,measurement,setting,value
B1,glycan array binding signal (z-score),[26],-1.09
same,glycan array binding signal (z-score),[12],-0.739
